Test results taken from patent publication US20160039825A1 (BIOGEN MA INC., priority 2013, published 2016).
Some of these results come from one statement about several compounds together.

System: 20:4 LPA (or 18:1 LPA) in rat K2 EDTA plasma
Assay: LPA plasma IC50 assay by LC-MS/MS
Format: biochemical
Conditions: 37° C., 18 hours, no greater than 500 nM

O=C(O)C1CC2CCCC(C1)N2C(=O)c1cc2n(n1)CCCN(C(=O)NCc1cc(Cl)cc(Cl)c1)C2 (stereo not shown) [Example 49, 9-(5-((3,5-Dichlorobenzyl)carbamoyl)-5,6,7,8-tetrahydro-4H-pyrazolo[1,5-a][1,4]diazepine-2-carbonyl)-9-azabicyclo[3.3.1]nonane-3-carboxylic acid]
IC50: ≤ 500 nM
